PMC7819943, “Rice protein-binding microarrays: a tool to detect cis-acting elements near promoter regions in rice”
This is one part of the list.

The chains behind the UniProt entries cited, without tags or fusion partners.
UniProt Q0JBA9, entry or part of it: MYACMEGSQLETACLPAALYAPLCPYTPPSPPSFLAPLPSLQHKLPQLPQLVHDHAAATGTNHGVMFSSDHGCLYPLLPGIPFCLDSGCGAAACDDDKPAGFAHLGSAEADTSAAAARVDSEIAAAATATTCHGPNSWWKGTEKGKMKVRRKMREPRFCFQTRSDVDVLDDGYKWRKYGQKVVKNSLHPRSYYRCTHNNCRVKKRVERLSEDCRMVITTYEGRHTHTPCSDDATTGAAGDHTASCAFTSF

What follows are sequences tested against OsWRKY34 (Oryza sativa, UniProt Q0JBA9 1-250) (assay: protein-binding microarray (RPBM); PBS, 2% BSA, 51.3 ng/ul salmon testes DNA, 50 uM zinc acetate, 200 nM TF, 25 C, 1 h; high values mean tight binding). Settings: protein: recombinant; tags: N-terminal polyhistidine and DsRed monomer fusion (pET32a); label: CyDye5-dUTP incorporated in the synthesized complementary strand; 3' TTTTT single-stranded linker to array surface; dsDNA, one strand shown.
How it was run: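 For the binding signal, per-feature fluorescence intensity was read in arbitrary units on an Axon 4000B scanner. Before scanning, a 2% BSA-blocked custom Agilent array made double-stranded with Cy5-dUTP was washed after 1 h at 25 °C with 200 nM protein and 50 µM zinc acetate. The proteins were Ni–NTA-purified transcription factors with N-terminal polyhistidine and DsRed fusions, expressed in E. coli BL21-CodonPlus.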

First: TCAGAATAGGGGTTTGGTTATTCCACTAGGTTATTCCGTACGGAGTCACCTAGTGCAG
Second: ACCATTTCTCTTCGTTTCTCTATGTATGACGTTTAGCTTGCGGAGTCACCTAGTGCAG
The binding signal of the first is lower: 8390 fluorescence intensity (a.u.) for the first, 9320 fluorescence intensity (a.u.) for the second.

Compared with “AATCCTAACCATGATGCTGTTCTTGTCTGTACTACTGCAACGGAGTCACCTAGTGCAG”, “GTGCATTTGGCATTTGCTGTTAACTTACTGATTGGACAATCGGAGTCACCTAGTGCAG” is lower in binding signal: 8630 fluorescence intensity (a.u.) for the first, 8140 fluorescence intensity (a.u.) for the second.

First: AGCTCACCATTCCTCGCCTCCTAGGGTTTCCTCCTATCCACGGAGTCACCTAGTGCAG
Second: GGAGCACATAACATGCACGTCGGCCTCTGCCGCGTACGTACGGAGTCACCTAGTGCAG
The binding signal of the first is higher: 9500 fluorescence intensity (a.u.) for the first, 8100 fluorescence intensity (a.u.) for the second.

Compared with “AACTTTATATTTTTATATTTTTGTTCTAATTTAAACCACCCGGAGTCACCTAGTGCAG”, “AGTTCATATTATTTCGCGTTCTCTATCGATCGCGTGTATACGGAGTCACCTAGTGCAG” is lower in binding signal: 8600 fluorescence intensity (a.u.) for the first, 8050 fluorescence intensity (a.u.) for the second.

Going from “TAATTATTACCGCTCCAACCACTATCCTAAAGTAGCTAACCGGAGTCACCTAGTGCAG” to “TTCGACCAAATCTACTGTTTAACCTTCGAAATTCTAATCACGGAGTCACCTAGTGCAG”, the binding signal falls from 9380 fluorescence intensity (a.u.) to 8310 fluorescence intensity (a.u.).

First: GGCACCGCTCCTTCCCCTGGCGCCGCTCCGTCCTCCTCCGCGGAGTCACCTAGTGCAG
Second: GCTCAGTCGCTCACTTGCTTACATATCTCTCGCTCACTTGCGGAGTCACCTAGTGCAG
The binding signal of the first is lower: 8220 fluorescence intensity (a.u.) for the first, 8400 fluorescence intensity (a.u.) for the second.

Going from “ACTAACCAAAACCGGTCATAATAGGTCCCTCGGTGGTTTTCGGAGTCACCTAGTGCAG” to “ATGTTGCTTGTGATGTATTGATTGTTTTTGCCAAAATATTCGGAGTCACCTAGTGCAG”, the binding signal falls from 9310 fluorescence intensity (a.u.) to 9150 fluorescence intensity (a.u.).

Compared with “CGCCACCCCACCTCGCGCCTCTGCGGCTATGGCTATATCACGGAGTCACCTAGTGCAG”, “AGACCATTGAATTCCTGTAGCAGAGTCTATTCTGAAATCCCGGAGTCACCTAGTGCAG” is higher in binding signal: 8420 fluorescence intensity (a.u.) for the first, 9270 fluorescence intensity (a.u.) for the second.

First: TCTGCTGCTTCATCACGATGGCCATGTCCTTGAGCGCGCTCGGAGTCACCTAGTGCAG
Second: GTGTTCCTTGTGATTCATTTAATTTGTTGCCTATGGCAGCCGGAGTCACCTAGTGCAG
The binding signal of the first is lower: 8600 fluorescence intensity (a.u.) for the first, 9150 fluorescence intensity (a.u.) for the second.

Compared with “GAAACCCAAACCAGAATGGCACCACGACTCCACCGCCCGACGGAGTCACCTAGTGCAG”, “CCATGTGCGTGCCACCAAATTTCCCTGGAGACCGATCTCACGGAGTCACCTAGTGCAG” is lower in binding signal: 8910 fluorescence intensity (a.u.) for the first, 8730 fluorescence intensity (a.u.) for the second.

Going from “GATTCTGCTTTGTTTGTGTTTATGAATGTACCAATAATTTCGGAGTCACCTAGTGCAG” to “GTGTGAAAGCCATATGCATTTTTTAGTTAGGTATAGATTTCGGAGTCACCTAGTGCAG”, the binding signal falls from 9670 fluorescence intensity (a.u.) to 8060 fluorescence intensity (a.u.).

Compared with “CTGGCCTCTAATGCTTTCCTCTTTTATCATTAGTAGTTACCGGAGTCACCTAGTGCAG”, “ATCCTCACTCCTTTCTTCTTTCCTTTCCCCTCTCTTCACCCGGAGTCACCTAGTGCAG” is lower in binding signal: 9510 fluorescence intensity (a.u.) for the first, 9280 fluorescence intensity (a.u.) for the second.

First: GCTGTTTCGCCGCACCCATCGAAATCTCACCCGCTCTCTCCGGAGTCACCTAGTGCAG
Second: GTAGGTGTGGTCAGTTTGGACTATATATATGTGATCCCTACGGAGTCACCTAGTGCAG
The binding signal of the first is higher: 10100 fluorescence intensity (a.u.) for the first, 8070 fluorescence intensity (a.u.) for the second.

Compared with “CTCCTTTTATCGCACGTTCTCGATCCAACGGTTCCTGTGACGGAGTCACCTAGTGCAG”, “GGGTTATGTTTCATTTGTATTATTTTCTTAATTCTTACACCGGAGTCACCTAGTGCAG” is higher in binding signal: 10300 fluorescence intensity (a.u.) for the first, 12700 fluorescence intensity (a.u.) for the second.

First: AACCGTATTGCTGACCAGACCATTTTTTGCCACCATTAGTCGGAGTCACCTAGTGCAG
Second: GTTTTTTTTTTGTTTGATTTTGATAGGAGTACATCTGTACCGGAGTCACCTAGTGCAG
The binding signal of the first is higher: 11100 fluorescence intensity (a.u.) for the first, 8630 fluorescence intensity (a.u.) for the second.

Compared with “ATCTTATCTTTGGCCTGGTTTAGTTCCCAATTTTTTTCTTCGGAGTCACCTAGTGCAG”, “GCTCACCCAGCCACCCACTCACACACACCCTCACATCTGACGGAGTCACCTAGTGCAG” is lower in binding signal: 10700 fluorescence intensity (a.u.) for the first, 8350 fluorescence intensity (a.u.) for the second.

First: TCACATCCCCTCCTAGGTTGTTTTTTTTTTTGGGATGAACCGGAGTCACCTAGTGCAG
Second: TTTGTCTATCCTGCCGGCTTTTGGCCTCTGCACGGCGCGCCGGAGTCACCTAGTGCAG
The binding signal of the first is lower: 10100 fluorescence intensity (a.u.) for the first, 13300 fluorescence intensity (a.u.) for the second.

Compared with “AAAGGGTGGTGGTTGGGAGTTTTTGAGACGAACACGTGTCCGGAGTCACCTAGTGCAG”, “TATGGGTCTTTTTATCACGTACTTACCTCCGTCCTATAAACGGAGTCACCTAGTGCAG” is higher in binding signal: 8690 fluorescence intensity (a.u.) for the first, 11700 fluorescence intensity (a.u.) for the second.

Going from “CGCTTTGGGTTTTTATATGGACTCTTCTCTCAATATTCCTCGGAGTCACCTAGTGCAG” to “ATTTCTTGGAGACCGTTGACTCCTCTCTCTCTATTTCCATCGGAGTCACCTAGTGCAG”, the binding signal rises from 8640 fluorescence intensity (a.u.) to 12400 fluorescence intensity (a.u.).

Going from “GTCCGCCGCCGAGAATGCAAGCCGCCACCACCACCACCACCGGAGTCACCTAGTGCAG” to “TCCATTTGTCTCTGCTTCAACCGCACTCCTCCCGCCTCCACGGAGTCACCTAGTGCAG”, the binding signal falls from 8490 fluorescence intensity (a.u.) to 8050 fluorescence intensity (a.u.).

First: TTCTCTGGTCGCCTACATATCCCCTGCCCCTCCTCTCCACCGGAGTCACCTAGTGCAG
Second: TGGGATCAATTACTAGTGGTTTATATTTAAGTGGGGTCATCGGAGTCACCTAGTGCAG
The binding signal of the first is lower: 9170 fluorescence intensity (a.u.) for the first, 10900 fluorescence intensity (a.u.) for the second.
